Drawing on article PMC10007849, this text covers binding for two substances.

Sequences of proteins named here, by UniProt entry; tags and fusion partners are left off. Residues count along the entry.
UniProt P80188, residues 21-198: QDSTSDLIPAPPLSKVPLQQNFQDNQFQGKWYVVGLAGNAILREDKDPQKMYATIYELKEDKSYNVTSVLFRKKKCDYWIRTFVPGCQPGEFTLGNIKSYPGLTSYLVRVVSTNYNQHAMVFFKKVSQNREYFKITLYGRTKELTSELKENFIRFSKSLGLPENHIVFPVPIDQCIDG

These are yes or no findings as the source states them, for the method shown. Binding seen in cells or lysates may run through a third protein. Some entries that bind do so weakly or less than the wild type.

The target in assay [1] is SFB-LCN2 (lipocalin-2 with SFB tag) (human) (UniProt P80188). In words: co-IP; mutual co-IP from cell lysates with immunoblotting; S-protein agarose beads overnight at 4 °C for SFB-LCN2, or antibodies for two hours and then Protein A/G magnetic beads; washed three times with NETN buffer.
The target in assay [2] is Epidermal growth factor receptor (EGFR) (human (endogenous in CAL-27)) (UniProt P00533). The assay is described as above.

Regarding “Epidermal growth factor receptor (EGFR) (from UniProt P00533 25-1210)”, the binding entry in assay [1] is “binds”. On to “SFB-LCN2 (lipocalin-2 with SFB tag) (from UniProt P80188 21-198)”, for which the binding entry in assay [2] was “binds”.
